No constants are given. Whether binding was seen depends on the method and setting. Some results given as binding are weak or reduced against the parent protein; the word gives no strength.

Here are results for one molecule from patent US20230322880A1 (MEDIKINE, published 2023).

Assay [1] concerns the target T1, hu-Rγc subunit (human) (UniProt P31785).
T1 sequence (looked up): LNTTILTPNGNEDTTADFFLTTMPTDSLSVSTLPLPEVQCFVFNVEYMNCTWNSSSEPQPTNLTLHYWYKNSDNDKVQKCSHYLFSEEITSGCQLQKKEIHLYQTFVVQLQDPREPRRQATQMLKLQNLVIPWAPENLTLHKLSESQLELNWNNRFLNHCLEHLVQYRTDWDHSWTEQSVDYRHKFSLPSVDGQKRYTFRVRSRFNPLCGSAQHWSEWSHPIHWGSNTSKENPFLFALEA
In words: competition binding ELISA. (In general: An ELISA detects its analyte on a solid surface through an enzyme-linked reagent.)

Assay [2] concerns the target T1, hu-Rγc subunit (human). In words: competition binding ELISA ('a similar method'); tracer not named.

Consider GWGIPWCTLDPGSLQCAWLGKHGGGGSGGVVCQDWEGVELCWQGG [IL-7Rαγc ligand having SEQ ID NO: 30], for which the binding result with hu-Rγc subunit (human) [1] and in the assay with hu-Rγc subunit (human) [2] was “binds” each time.
